Source: the supplement of paper PMC10849652
Some of the results follow.

Amino acid sequences for entries named in this document (tags omitted). A change or cut given only in a name is not applied to a line headed by its entry.
UniProt Q9HCG8: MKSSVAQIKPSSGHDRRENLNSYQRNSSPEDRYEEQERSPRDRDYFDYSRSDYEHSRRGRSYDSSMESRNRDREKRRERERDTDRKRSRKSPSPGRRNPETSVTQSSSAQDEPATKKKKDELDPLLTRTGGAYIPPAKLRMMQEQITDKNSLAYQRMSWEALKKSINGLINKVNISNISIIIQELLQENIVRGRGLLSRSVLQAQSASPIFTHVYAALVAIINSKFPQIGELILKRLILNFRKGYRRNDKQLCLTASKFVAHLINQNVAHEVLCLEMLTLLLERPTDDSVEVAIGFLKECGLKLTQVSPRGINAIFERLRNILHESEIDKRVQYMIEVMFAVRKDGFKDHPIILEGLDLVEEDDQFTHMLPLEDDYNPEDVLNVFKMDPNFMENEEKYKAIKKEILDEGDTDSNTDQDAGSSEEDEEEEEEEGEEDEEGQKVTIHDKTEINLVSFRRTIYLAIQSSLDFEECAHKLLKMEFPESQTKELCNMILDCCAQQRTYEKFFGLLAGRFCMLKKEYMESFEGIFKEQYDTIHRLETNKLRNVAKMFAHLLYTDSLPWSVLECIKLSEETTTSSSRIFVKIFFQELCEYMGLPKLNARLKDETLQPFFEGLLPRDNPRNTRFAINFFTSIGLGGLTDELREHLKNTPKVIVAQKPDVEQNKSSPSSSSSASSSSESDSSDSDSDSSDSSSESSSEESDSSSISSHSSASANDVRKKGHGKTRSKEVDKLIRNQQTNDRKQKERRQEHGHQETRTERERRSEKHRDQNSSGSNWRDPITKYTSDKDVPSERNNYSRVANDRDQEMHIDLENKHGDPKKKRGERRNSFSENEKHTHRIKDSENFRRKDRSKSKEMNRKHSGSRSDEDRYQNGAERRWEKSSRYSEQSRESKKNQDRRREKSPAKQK
UniProt O43310: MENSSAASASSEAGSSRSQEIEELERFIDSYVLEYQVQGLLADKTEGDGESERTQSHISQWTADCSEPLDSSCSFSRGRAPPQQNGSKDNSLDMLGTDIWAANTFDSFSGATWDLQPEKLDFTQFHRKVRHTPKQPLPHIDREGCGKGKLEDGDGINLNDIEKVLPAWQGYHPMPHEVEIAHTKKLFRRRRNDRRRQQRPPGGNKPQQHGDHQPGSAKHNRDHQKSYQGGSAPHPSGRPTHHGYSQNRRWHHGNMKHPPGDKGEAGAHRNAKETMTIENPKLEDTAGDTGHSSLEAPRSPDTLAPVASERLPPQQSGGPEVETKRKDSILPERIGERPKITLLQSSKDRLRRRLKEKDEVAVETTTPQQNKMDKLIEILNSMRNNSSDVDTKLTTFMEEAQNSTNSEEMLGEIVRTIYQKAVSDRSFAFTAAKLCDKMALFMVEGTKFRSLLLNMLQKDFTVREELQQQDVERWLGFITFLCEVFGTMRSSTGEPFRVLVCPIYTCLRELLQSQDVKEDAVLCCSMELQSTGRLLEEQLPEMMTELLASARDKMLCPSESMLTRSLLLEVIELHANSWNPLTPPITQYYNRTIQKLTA
UniProt Q03060: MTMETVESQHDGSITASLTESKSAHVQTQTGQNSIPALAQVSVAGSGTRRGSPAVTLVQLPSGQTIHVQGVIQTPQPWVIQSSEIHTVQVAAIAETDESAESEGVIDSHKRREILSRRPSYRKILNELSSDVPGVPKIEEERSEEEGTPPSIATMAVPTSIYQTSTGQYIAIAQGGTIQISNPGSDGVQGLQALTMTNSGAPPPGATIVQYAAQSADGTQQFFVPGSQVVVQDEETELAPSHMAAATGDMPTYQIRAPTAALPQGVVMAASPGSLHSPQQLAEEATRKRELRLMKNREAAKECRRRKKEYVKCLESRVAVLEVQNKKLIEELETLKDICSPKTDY
UniProt P25774, whole entry, looked up: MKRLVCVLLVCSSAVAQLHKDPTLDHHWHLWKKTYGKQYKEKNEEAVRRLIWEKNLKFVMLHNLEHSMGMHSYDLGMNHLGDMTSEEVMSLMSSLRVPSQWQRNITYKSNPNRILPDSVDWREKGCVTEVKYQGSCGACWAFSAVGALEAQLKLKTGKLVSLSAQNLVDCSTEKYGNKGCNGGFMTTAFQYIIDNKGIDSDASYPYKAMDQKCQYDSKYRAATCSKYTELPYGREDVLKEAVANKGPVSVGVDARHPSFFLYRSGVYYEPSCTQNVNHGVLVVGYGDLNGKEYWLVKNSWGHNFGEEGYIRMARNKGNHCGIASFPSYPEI
UniProt P00167, whole entry, looked up: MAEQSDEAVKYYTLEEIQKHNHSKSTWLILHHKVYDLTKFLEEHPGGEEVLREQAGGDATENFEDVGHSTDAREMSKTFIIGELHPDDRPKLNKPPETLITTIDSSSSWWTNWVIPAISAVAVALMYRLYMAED
UniProt Q2NKJ3: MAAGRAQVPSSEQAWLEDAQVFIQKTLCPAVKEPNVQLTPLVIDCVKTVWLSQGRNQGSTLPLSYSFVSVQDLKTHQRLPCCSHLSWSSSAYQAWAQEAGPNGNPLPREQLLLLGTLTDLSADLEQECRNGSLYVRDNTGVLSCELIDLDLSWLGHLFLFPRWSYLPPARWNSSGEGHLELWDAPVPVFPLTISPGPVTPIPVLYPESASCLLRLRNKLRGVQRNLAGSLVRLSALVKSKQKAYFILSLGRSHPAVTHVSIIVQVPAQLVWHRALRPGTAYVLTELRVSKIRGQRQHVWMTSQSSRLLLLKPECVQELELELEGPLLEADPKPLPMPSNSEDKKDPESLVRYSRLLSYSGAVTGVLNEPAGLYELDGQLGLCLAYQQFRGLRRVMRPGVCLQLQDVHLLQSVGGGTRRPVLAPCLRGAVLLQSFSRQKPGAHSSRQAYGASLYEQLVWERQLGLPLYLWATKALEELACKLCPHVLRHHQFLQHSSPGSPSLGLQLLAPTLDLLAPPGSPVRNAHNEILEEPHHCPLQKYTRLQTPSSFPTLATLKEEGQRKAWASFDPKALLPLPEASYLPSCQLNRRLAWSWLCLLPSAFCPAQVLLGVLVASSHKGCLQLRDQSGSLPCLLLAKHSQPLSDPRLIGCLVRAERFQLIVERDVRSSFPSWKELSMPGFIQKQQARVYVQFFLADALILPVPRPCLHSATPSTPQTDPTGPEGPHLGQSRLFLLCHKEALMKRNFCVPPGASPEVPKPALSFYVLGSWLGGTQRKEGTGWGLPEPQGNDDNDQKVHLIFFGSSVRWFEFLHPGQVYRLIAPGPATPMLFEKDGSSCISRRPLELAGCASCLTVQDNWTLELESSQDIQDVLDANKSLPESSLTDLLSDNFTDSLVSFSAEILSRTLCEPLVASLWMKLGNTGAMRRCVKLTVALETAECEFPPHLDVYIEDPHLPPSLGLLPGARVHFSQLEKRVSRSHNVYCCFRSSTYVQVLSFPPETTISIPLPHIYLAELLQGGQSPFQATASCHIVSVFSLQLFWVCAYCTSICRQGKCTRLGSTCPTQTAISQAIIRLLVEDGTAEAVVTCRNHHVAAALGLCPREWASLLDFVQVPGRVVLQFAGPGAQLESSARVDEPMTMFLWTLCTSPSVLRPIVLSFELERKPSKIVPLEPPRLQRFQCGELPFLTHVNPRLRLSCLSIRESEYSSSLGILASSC
UniProt P48730: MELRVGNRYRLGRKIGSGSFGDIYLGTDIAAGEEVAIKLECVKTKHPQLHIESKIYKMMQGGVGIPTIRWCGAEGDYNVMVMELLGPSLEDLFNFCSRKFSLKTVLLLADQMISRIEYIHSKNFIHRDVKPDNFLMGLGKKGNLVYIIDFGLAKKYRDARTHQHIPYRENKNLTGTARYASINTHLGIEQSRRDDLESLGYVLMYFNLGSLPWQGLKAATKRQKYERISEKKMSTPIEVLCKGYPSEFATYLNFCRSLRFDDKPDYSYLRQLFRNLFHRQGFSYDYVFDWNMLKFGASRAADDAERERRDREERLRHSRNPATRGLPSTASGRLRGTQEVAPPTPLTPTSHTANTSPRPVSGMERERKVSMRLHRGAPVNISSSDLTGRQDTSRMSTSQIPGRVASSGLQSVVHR
UniProt Q9UBX1: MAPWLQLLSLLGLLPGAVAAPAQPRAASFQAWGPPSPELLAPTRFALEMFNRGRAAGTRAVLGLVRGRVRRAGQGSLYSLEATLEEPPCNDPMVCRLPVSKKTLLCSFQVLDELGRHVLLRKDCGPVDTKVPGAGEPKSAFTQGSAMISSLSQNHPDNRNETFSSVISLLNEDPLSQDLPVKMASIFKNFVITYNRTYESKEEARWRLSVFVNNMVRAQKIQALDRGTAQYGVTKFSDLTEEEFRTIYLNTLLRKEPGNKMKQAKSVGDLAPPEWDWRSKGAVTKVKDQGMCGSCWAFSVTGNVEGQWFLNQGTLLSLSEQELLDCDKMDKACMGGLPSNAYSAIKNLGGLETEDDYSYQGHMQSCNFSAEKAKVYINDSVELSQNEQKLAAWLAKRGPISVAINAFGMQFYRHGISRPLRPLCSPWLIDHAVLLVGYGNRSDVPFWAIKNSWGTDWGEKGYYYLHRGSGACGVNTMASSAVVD
UniProt Q9UBT7: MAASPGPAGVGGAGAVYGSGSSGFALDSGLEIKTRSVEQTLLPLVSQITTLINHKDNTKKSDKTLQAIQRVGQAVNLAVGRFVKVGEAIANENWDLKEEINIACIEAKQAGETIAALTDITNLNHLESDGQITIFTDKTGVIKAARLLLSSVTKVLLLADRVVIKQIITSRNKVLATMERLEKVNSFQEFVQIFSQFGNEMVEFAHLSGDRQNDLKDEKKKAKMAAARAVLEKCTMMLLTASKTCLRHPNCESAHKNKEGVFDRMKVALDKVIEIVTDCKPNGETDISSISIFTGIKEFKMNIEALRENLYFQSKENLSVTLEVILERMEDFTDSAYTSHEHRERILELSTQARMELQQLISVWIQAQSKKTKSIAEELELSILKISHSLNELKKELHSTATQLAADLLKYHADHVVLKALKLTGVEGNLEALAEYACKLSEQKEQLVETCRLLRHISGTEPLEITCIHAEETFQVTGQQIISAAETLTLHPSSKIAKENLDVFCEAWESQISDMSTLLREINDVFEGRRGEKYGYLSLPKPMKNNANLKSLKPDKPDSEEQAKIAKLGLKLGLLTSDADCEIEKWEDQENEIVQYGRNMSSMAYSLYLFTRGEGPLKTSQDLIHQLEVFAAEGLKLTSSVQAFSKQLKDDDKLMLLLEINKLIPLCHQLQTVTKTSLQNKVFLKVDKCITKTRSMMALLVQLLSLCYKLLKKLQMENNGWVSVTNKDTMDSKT
UniProt Q6UUV9: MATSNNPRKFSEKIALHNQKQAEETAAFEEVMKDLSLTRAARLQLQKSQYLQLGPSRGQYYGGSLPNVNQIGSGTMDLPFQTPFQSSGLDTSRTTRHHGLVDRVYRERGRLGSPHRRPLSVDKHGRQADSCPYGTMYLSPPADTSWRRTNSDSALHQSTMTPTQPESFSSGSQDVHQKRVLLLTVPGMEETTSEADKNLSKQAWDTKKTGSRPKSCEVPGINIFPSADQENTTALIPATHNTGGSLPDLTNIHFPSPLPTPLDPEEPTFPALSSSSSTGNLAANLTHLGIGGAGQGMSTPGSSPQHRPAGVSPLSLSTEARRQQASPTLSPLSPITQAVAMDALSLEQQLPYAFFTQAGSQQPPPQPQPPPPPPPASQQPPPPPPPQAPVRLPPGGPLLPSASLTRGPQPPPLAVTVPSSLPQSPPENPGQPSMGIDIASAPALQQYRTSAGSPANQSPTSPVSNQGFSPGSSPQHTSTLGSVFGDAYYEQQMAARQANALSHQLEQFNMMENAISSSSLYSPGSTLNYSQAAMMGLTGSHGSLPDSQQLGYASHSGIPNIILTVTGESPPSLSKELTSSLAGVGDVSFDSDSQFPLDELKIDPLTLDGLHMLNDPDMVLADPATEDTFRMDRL
UniProt Q13948: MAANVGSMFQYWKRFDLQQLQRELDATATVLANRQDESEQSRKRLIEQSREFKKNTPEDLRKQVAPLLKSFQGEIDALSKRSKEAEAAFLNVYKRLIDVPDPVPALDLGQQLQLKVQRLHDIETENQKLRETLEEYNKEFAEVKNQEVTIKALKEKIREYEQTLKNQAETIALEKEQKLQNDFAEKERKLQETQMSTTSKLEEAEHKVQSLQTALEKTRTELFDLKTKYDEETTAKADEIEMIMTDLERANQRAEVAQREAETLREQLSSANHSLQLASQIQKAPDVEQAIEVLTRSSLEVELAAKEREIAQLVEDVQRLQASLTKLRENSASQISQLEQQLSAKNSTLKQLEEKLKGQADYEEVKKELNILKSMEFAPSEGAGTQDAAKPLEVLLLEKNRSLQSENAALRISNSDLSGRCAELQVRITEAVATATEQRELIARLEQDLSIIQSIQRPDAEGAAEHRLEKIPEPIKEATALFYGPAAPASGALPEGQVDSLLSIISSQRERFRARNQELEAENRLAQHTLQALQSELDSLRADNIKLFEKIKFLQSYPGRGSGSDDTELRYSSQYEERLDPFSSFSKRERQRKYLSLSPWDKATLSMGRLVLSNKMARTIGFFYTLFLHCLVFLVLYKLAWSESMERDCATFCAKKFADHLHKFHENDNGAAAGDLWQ

Assays:
Assay in all cases: log2 fold change, soluble protein after heating vs DMSO (PISA); higher = thermal stabilisation; K562 lysate, 10 uM; active = over 0.2 and 3.5 SD of the protein, either way, in both replicates (recomputed)
[1] = compound: CN1CC[C@H](c2c(O)cc(O)c3c(=O)cc(-c4ccccc4Cl)oc23)[C@H](O)C1 [alvocidib]
Outline: (§1)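 K562 pellets were dounce-homogenised in PBS pH 7.4 containing 1 mM MgCl2, and the crude extract, at 1 mg/mL protein, was exposed to 10 μM compound for 30 min. Aliquots were heated for 3 min across 48°C-58°C, pooled, brought to 0.5% NP-40 at 4°C and spun at 21,000xg for 90 min, with the supernatant taken as soluble protein. TMTpro 16plex LC-MS/MS with equalised channel sums quantified that protein. Values are log-two fold changes in thermal stability relative to solvent controls, taken from duplicates.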

[2] = compound: CN1CCc2c(c3ccccc3n2Cc2ccc(C(=O)NO)cc2)C1 [Tubastatin A]
Outline: as §1

[3] = compound: CNC(=O)C1=CC=CC=C1NC2=NC(=NC=C2Cl)NC3=C(C=C(C=C3)N4CCOCC4)OC
Outline: as §1

[4] = compound: CNC(=O)c1ccc(Nc2ncc(C(F)(F)F)c(NCc3nccnc3N(C)S(C)(=O)=O)n2)cc1 [defactinib]
Outline: as §1

[5] = compound: CNc1nc(-c2ccc3c(N)n[nH]c3c2)cc(N2C[C@@H](C(=O)NC3CCCCC3)CC[C@H]2C)n1
Outline: as §1

[6] = compound: COC(=O)N[C@@H](C)CNc1nccc(-c2cn(C(C)C)nc2-c2cc(Cl)cc(NS(C)(=O)=O)c2F)n1 [encorafenib]
Outline: as §1

[7] = compound: COC(=O)[C@H](CCSC)NC(=O)C1=C(C=C(C=C1)NC[C@H](CS)N)C2=CC=CC=C2
Outline: as §1

[8] = compound: COc1cc(Nc2ncc3c(n2)-c2ccc(Cl)cc2C(c2c(F)cccc2OC)=NC3)ccc1C(=O)O [alisertib]
Outline: as §1

[9] = compound: COc1cc2nc(-c3cc(F)ccc3O)nc(N[C@@H]3CNC[C@H]3C(C)(C)O)c2cc1OC
Outline: as §1

[10] = compound: COc1cc2ncnc(Nc3ccc(F)c(Cl)c3)c2cc1OCCCN1CCOCC1 [gefitinib]
Outline: as §1

[11] = compound: CS(=O)(=O)CCNCc1ccc(-c2ccc3ncnc(Nc4ccc(OCc5cccc(F)c5)c(Cl)c4)c3c2)o1 [lapatinib]
Outline: as §1

[12] = compound: CS(=O)(=O)N1CCN(Cc2cc3nc(-c4cccc5[nH]ncc45)nc(N4CCOCC4)c3s2)CC1 [pictilisib]
Outline: as §1

[13] = compound: C[C@@H](Oc1cc(-c2cnn(C3CCNCC3)c2)cnc1N)c1c(Cl)ccc(F)c1Cl [crizotinib]
Outline: as §1

[14] = compound: C[C@H](C1=CC=C(C=C1)C(=O)NC2=C3C=CNC3=NC=C2)N
Outline: as §1

[15] = compound: C[C@H](Nc1ncnc2nc[nH]c12)c1cc2cccc(Cl)c2c(=O)n1-c1ccccc1 [duvelisib]
Outline: as §1

[16] = compound: Cc1cc(Nc2cc(CN3CCOCC3)c3nc(C)c(Cc4ccc(Cl)cc4F)n3n2)n[nH]1 [gandotinib]
Outline: as §1

[17] = compound: Cc1cc(Nc2cc(N3CCN(C)CC3)nc(Sc3ccc(NC(=O)C4CC4)cc3)n2)n[nH]1 [tozasertib]
Outline: as §1

[18] = compound: Cc1ccc(-n2nc(C(C)(C)C)cc2NC(=O)Nc2ccc(OCCN3CCOCC3)c3ccccc23)cc1 [doramapimod]
Outline: as §1

[19] = compound: Cc1ccc(NC(=O)c2ccc(CN3CC[C@H](N(C)C)C3)c(C(F)(F)F)c2)cc1Nc1nccc(-c2cncnc2)n1 [bafetinib]
Outline: as §1

[20] = compound: Cc1cccc(CC(=O)N2CCc3c2ccc(-c2cn(C)c4ncnc(N)c24)c3F)n1
Outline: as §1

Target	log2 fold change [1]	log2 fold change [2]	log2 fold change [3]	log2 fold change [4]	log2 fold change [5]	log2 fold change [6]	log2 fold change [7]	log2 fold change [8]	log2 fold change [9]	log2 fold change [10]	log2 fold change [11]	log2 fold change [12]	log2 fold change [13]	log2 fold change [14]	log2 fold change [15]	log2 fold change [16]	log2 fold change [17]	log2 fold change [18]	log2 fold change [19]	log2 fold change [20]
CWC22 (UniProt Q9HCG8)	inactive: 0.112	inactive: -0.035	inactive: 0	inactive: -0.026	inactive: -0.036	inactive: 0.046	inactive: 0.093	inactive: -0.065	inactive: -0.058	inactive: -0.028	inactive: 0.059	inactive: -0.027	inactive: -0.051	active: 0.46	inactive: 0.011	inactive: -0.207	inactive: 0.072	inactive: -0.019	inactive: -0.088	inactive: -0.109
CTIF isoform 2 (UniProt O43310)	inactive: -0.027	inactive: 0.019	inactive: 0.004	inactive: 0.023	inactive: 0.027	inactive: -0.01	inactive: -0.167	inactive: 0.068	inactive: -0.02	inactive: 0.016	inactive: 0.074	inactive: 0	inactive: 0.045	inactive: -0.129	inactive: -0.014	inactive: 0.068	inactive: 0.133	inactive: -0.024	inactive: -0.059	inactive: 0.117
CRNKL1 (UniProt Q9BZJ0)	inactive: -0.024	inactive: 0.135	inactive: -0.009	inactive: 0.038	inactive: -0.026	inactive: 0.132	inactive: 0.061	inactive: -0.018	inactive: 0.063	inactive: 0.019	inactive: 0	inactive: 0.001	inactive: 0.063	inactive: 0.069	inactive: 0.068	inactive: -0.049	inactive: 0.058	inactive: 0.071	inactive: -0.043	inactive: 0.027
CTTNBP2NL (UniProt Q9P2B4)	inactive: 0.044	inactive: -0.059	–	inactive: 0.064	–	inactive: 0.012	inactive: 0.096	inactive: -0.095	inactive: 0.028	inactive: 0.067	inactive: 0.027	inactive: 0.094	inactive: -0.079	inactive: 0.02	–	inactive: -0.352	inactive: 0.108	inactive: 0.024	inactive: 0.023	inactive: -0.162
CREM isoform 1 (UniProt Q03060)	inactive: 0.015	inactive: 0.052	–	–	inactive: -0.05	–	–	inactive: 0.007	inactive: 0.035	inactive: -0.218	inactive: 0.04	inactive: 0.016	inactive: 0.005	inactive: 0.004	inactive: 0.043	inactive: -0.029	–	inactive: 0.061	inactive: -0.117	inactive: -0.05
CRYM-AS1 (UniProt A6NIL9)	inactive: -0.187	inactive: 0.099	inactive: -0.075	inactive: -0.224	–	inactive: -0.12	inactive: 0.014	inactive: 0.021	inactive: 0.063	inactive: 0.164	inactive: -0.135	inactive: -0.107	inactive: -0.118	inactive: -0.425	–	inactive: 0.127	inactive: -0.032	inactive: 0.049	inactive: -0.116	inactive: 0.205
CTSS (UniProt P25774)	inactive: -0.052	–	inactive: -0.091	–	inactive: 0.083	inactive: -0.134	inactive: -0.04	–	–	–	–	–	–	inactive: -0.261	inactive: 0.079	inactive: -0.04	inactive: 0.08	–	–	inactive: 0.213
CTRB2 (UniProt Q6GPI1)	inactive: -0.109	–	–	inactive: -0.093	–	inactive: 0.062	inactive: -0.008	inactive: 0.043	inactive: 0.065	inactive: 0.087	inactive: -0.048	–	–	inactive: -0.402	–	inactive: 0.202	inactive: 0.124	–	–	inactive: 0.281
CYB5A (UniProt P00167)	inactive: -0.021	inactive: 0.059	inactive: 0.133	–	inactive: 0.14	inactive: 0.009	inactive: -0.029	inactive: 0.048	–	inactive: -0.027	–	inactive: 0.048	inactive: 0.047	inactive: -0.083	inactive: 0.083	inactive: 0.107	inactive: 0.035	inactive: 0	inactive: -0.025	inactive: 0.14
CTC1 (UniProt Q2NKJ3)	inactive: -0.032	inactive: -0.126	inactive: 0.034	inactive: -0.014	inactive: -0.035	inactive: 0.028	inactive: 0.041	inactive: 0.291	–	inactive: 0.294	–	inactive: -0.114	inactive: 0	inactive: 0.185	inactive: 0.031	inactive: 0.018	inactive: -0.073	inactive: -0.11	inactive: 0.019	inactive: 0.045
CYB561 (UniProt P49447)	inactive: -0.123	inactive: 0.007	inactive: -0.034	inactive: -0.03	inactive: 0.081	inactive: 0.039	inactive: -0.045	–	inactive: 0.052	–	inactive: 0.007	inactive: -0.075	inactive: 0.005	inactive: -0.247	inactive: 0.095	inactive: 0.159	inactive: -0.082	inactive: 0.113	inactive: 0.157	inactive: 0.161
CSNK1D (UniProt P48730)	inactive: 0.244	inactive: -0.085	–	inactive: 0.103	inactive: -0.091	inactive: 0.041	inactive: 0.013	inactive: 0	inactive: -0.131	inactive: -0.023	inactive: -0.098	inactive: 0.066	inactive: 0.052	inactive: -0.153	inactive: 0.007	inactive: 0.059	inactive: 0.008	inactive: -0.011	inactive: -0.01	inactive: -0.177
CTSF (UniProt Q9UBX1)	inactive: 0.142	inactive: -0.452	inactive: -0.147	–	–	–	–	–	–	–	–	–	–	inactive: 0.014	–	inactive: 0.028	–	–	–	inactive: 0.025
CTNNAL1 (UniProt Q9UBT7)	inactive: -0.041	–	inactive: -0.117	inactive: 0.017	inactive: -0.165	inactive: 0.002	inactive: -0.011	inactive: 0.077	inactive: -0.036	inactive: -0.041	inactive: -0.124	–	inactive: -0.102	inactive: -0.246	inactive: -0.152	inactive: 0.152	inactive: -0.02	inactive: 0.071	–	inactive: 0.269
CRTC1 (UniProt Q6UUV9)	inactive: 0.004	inactive: 0.011	inactive: -0.005	inactive: 0.077	inactive: 0.088	inactive: -0.025	inactive: -0.075	–	inactive: 0.012	–	inactive: -0.047	inactive: 0.006	inactive: 0.032	inactive: -0.003	inactive: -0.024	inactive: -0.005	inactive: 0.057	inactive: 0.084	inactive: 0.092	inactive: 0.062
CUX1 isoform 2 (UniProt Q13948)	inactive: -0.035	inactive: 0.016	inactive: 0.033	inactive: 0.085	inactive: -0.028	inactive: 0.067	inactive: -0.022	–	inactive: 0.071	–	inactive: -0.168	–	inactive: -0.073	inactive: 0.104	inactive: 0.014	inactive: 0.041	inactive: 0.057	inactive: -0.12	–	inactive: -0.089
CTF1 (UniProt Q16619)	inactive: 0.064	inactive: 0.1	inactive: -0.101	inactive: 0.133	inactive: 0.06	inactive: 0.05	inactive: -0.109	–	inactive: -0.087	–	inactive: 0.075	–	inactive: -0.105	inactive: -0.069	inactive: 0.015	inactive: 0.026	inactive: 0.029	inactive: -0.138	–	inactive: 0.018
CRLS1 (UniProt Q9UJA2)	inactive: 0.056	inactive: 0.007	inactive: 0.068	–	–	–	–	inactive: 0.076	inactive: -0.017	inactive: 0.079	inactive: -0.003	inactive: -0.107	inactive: -0.086	inactive: 0.084	–	inactive: -0.105	–	inactive: -0.062	inactive: -0.437	inactive: -0.176

2 entries from above, as comma-separated lines.
Target,log2 fold change [1],log2 fold change [2],log2 fold change [3],log2 fold change [4],log2 fold change [5],log2 fold change [6],log2 fold change [7],log2 fold change [8],log2 fold change [9],log2 fold change [10],log2 fold change [11],log2 fold change [12],log2 fold change [13],log2 fold change [14],log2 fold change [15],log2 fold change [16],log2 fold change [17],log2 fold change [18],log2 fold change [19],log2 fold change [20]
CWC22 (UniProt Q9HCG8),inactive: 0.112,inactive: -0.035,inactive: 0,inactive: -0.026,inactive: -0.036,inactive: 0.046,inactive: 0.093,inactive: -0.065,inactive: -0.058,inactive: -0.028,inactive: 0.059,inactive: -0.027,inactive: -0.051,active: 0.46,inactive: 0.011,inactive: -0.207,inactive: 0.072,inactive: -0.019,inactive: -0.088,inactive: -0.109
CTIF isoform 2 (UniProt O43310),inactive: -0.027,inactive: 0.019,inactive: 0.004,inactive: 0.023,inactive: 0.027,inactive: -0.01,inactive: -0.167,inactive: 0.068,inactive: -0.02,inactive: 0.016,inactive: 0.074,inactive: 0,inactive: 0.045,inactive: -0.129,inactive: -0.014,inactive: 0.068,inactive: 0.133,inactive: -0.024,inactive: -0.059,inactive: 0.117
